PubChem BioAssay AID445 (National Center for Advancing Translational Sciences (NCATS), 2006)
The other results are listed elsewhere or left out. The main result of the screen is listed elsewhere. These columns were measured beside it and carry no call. Compounds called inactive in the main read-out are mostly missing here. The note in brackets gives the kind of curve behind each potency; many fits are weak.

Test: IkB Signaling
Details: ABC-DLBCL IkBa-CBG/CBR dual luciferase ratio (green luciferase fused to IkBa over red control in OCI-Ly3 lymphoma cells), 4 h
Method in brief: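 Luminescence ratio of IκBα-fused green versus native red beetle luciferase in OCI-Ly3 cells, 4 h post-doxycycline with compound; red signal alone, scaled from basal (0%) to zero light (-100%), flagged nonspecific or cytotoxic effects.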

[1] = measured here: control luc red channel unless noted

Compound: Cc1oc(-c2ccc(C(=O)NCCCOC(C)C)cc2)nc1CS(=O)(=O)c1ccccc1
- AC50 [1]: 25.1 µM [falling, single point]

Compound: COc1ccccc1N(CC(=O)NC1CCCC1)C(=O)CCC(=O)Nc1cc(C)on1
- AC50 [1]: 5.01 µM [falling, partial curve]

Compound: COC(=O)c1sc(NC(=O)c2ccc(Cn3cc(Cl)cn3)o2)c(C#N)c1C
- AC50 [1]: 12.6 µM [falling, partial curve]

Compound: Cc1cc(Nc2ccccc2F)n2nc(Cc3ccc(Cl)cc3)nc2n1
- AC50 [1]: 0.158 µM [rising, full curve]

Compound: CC(C)c1noc(-c2ccccc2OCC(=O)Nc2ccccc2[N+](=O)[O-])n1
- AC50 [1]: 15.8 µM [falling, partial curve]

Compound: Cc1cc(Nc2ccc(Cl)cc2C)nc(-n2nc(C)cc2C)n1
- AC50 [1]: 25.1 µM [falling, partial curve, poor fit]

Compound: O=C(NCc1ccc2c(c1)CCN2C(=O)c1ccc(F)cc1)c1ccco1
- AC50 [1]: 31.6 µM [rising, partial curve]

Compound: CCN(C(=O)c1cc2c(=O)n3cccc(C)c3nc2s1)c1ccc(C)c(C)c1
- AC50 [1]: 20 µM [falling, single point]

Compound: CCOC(=O)c1ccc(NC(=O)C2(S(=O)(=O)c3ccc(Cl)cc3)CC2)cc1
- AC50 [1]: 25.1 µM [falling, partial curve, poor fit]

Compound: Cc1cccc(C)c1NS(=O)(=O)c1ccc(NS(=O)(=O)c2ccc3c(c2)OCCO3)cc1
- AC50 [1]: 25.1 µM [falling, partial curve]

Compound: CCC(=O)c1ccc(CCCCCC(=O)O)s1
- AC50 [1]: 0.794 µM [falling, full curve]

Compound: Cc1ccc(C)c(N2CCN(CCCNC(=O)c3ccc4nc(N5CCCCC5)sc4c3)CC2)c1
- AC50 [1]: 15.8 µM [falling, partial curve]

Compound: Cc1ccc(-c2nnc(Nc3ccccc3)c3ccccc23)cc1S(=O)(=O)NCc1nc2ccccc2[nH]1
- AC50 [1]: 5.01 µM [falling, partial curve]

Compound: Cc1cccc(N2CCN(C(=O)CCS(=O)(=O)c3ccc4c(c3)oc(=O)n4C)CC2)c1C
- AC50 [1]: 31.6 µM [falling, single point]

Compound: O=C(CSc1nnnn1-c1ccccc1Cl)Nc1ccc2c(c1)OCCO2
- AC50 [1]: 15.8 µM [falling, partial curve]

Compound: Cc1oc2c(O)c(O)ccc2c(=O)c1-c1cnn(-c2ccccc2)c1
- AC50 [1]: 10 µM [falling, partial curve]

Compound: COc1ccccc1C(=O)Nc1cccc(C(=O)OCc2cc(=O)n3nc(C)sc3n2)c1
- AC50 [1]: 12.6 µM [falling, partial curve]

Compound: O=C(CN1C(=O)C2(SCC(=O)N2c2ccccc2)c2ccccc21)NCc1ccccc1 (stereo not given)
- AC50 [1]: 12.6 µM [falling, partial curve]

Compound: CCCNC(=O)C(CC)n1nc(CC)n2c(cc3oc(C)cc32)c1=O (stereo not given)
- AC50 [1]: 5.01 µM [rising, partial curve, poor fit]

Compound: COc1ccc(-c2ccc(C(=S)N3CCN(C(C)=O)CC3)o2)cc1
- AC50 [1]: 39.8 µM [rising, single point] [measured here: IkB-luc green channel]

Compound: COc1ccc2nc(NC(=O)c3ccc(Br)s3)sc2c1
- AC50 [1]: 3.98 µM [falling, full curve, poor fit]

Compound: Cc1cc(C)n(-c2nc3ccccc3nc2N2CCN(c3cccc(C)c3C)CC2)n1
- AC50 [1]: 6.31 µM [falling, single point]

Compound: c1ccc(/N=C2\N=C(Nc3ccccn3)c3ccccc32)nc1
- AC50 [1]: 39.8 µM [rising, single point] [measured here: IkB-luc green channel]

Compound: O=C(CSc1nc2c([nH]c3ccccc32)c(=O)n1-c1cccc(Cl)c1)N1CCOCC1
- AC50 [1]: 39.8 µM [rising, single point] [measured here: IkB-luc green channel]

Compound: COc1cccc(CNC(=O)C2(c3cccs3)CCOCC2)c1
- AC50 [1]: 2 µM [rising, partial curve]

Compound: CCC(NC(=O)c1ccccc1NC(=O)c1ccccc1)C(=O)O (stereo not given)
- AC50 [1]: 10 µM [falling, partial curve]

Compound: O=C(c1cc(-c2ccc3c(c2)OCO3)on1)N1CCN(c2ccccc2)CC1
- AC50 [1]: 0.0251 µM [falling, full curve]

Compound: CN1CC2=Cc3ccccc3OC23Oc2ccccc2C=C3C1
- AC50 (measured here: IkB-luc green channel): 3.98 µM [rising, partial curve]
- AC50 (measured here: control luc red channel): 10 µM [falling, partial curve]

Compound: O=C1NC(c2cccs2)Nc2sc3c(c21)CCCC3 (stereo not given)
- AC50 [1]: 39.8 µM [falling, single point]

Compound: CCOc1ccc(-n2c(CC)nc3c(cnn3-c3ccc(Cl)cc3)c2=O)cc1
- AC50 [1]: 10 µM [falling, partial curve]

Compound: Cc1oc(-c2cccc(Cl)c2)nc1CN1CCCC(C(=O)N2CCN(c3ccc(F)cc3)CC2)C1 (stereo not given)
- AC50 [1]: 31.6 µM [falling, single point]

Compound: Cc1cccc(Cn2c(C)c(CNC3CCCCCC3)c(C(=O)O)c2C)c1
- AC50 [1]: 25.1 µM [falling, single point]

Compound: O=C(Cn1c(=O)c2ccccc2n(CC(=O)Nc2ccc(F)cc2)c1=O)NCCc1ccccc1
- AC50 [1]: 12.6 µM [falling, partial curve]

Compound: Cc1c(NC(=O)C(C)(C)C)cccc1-c1nc2ccccc2s1
- AC50 [1]: 15.8 µM [falling, partial curve]

Compound: Cn1cc(S(=O)(=O)N2CCc3ccccc32)cc1C(=O)Nc1ccc(C(F)(F)F)cc1
- AC50 [1]: 20 µM [falling, single point]

Compound: Cn1cccc1Cc1nnc(SCC(=O)Nc2ccc(Cl)cc2)n1-c1ccc(F)cc1
- AC50 [1]: 12.6 µM [falling, partial curve]

Compound: CCc1ccc(NC(=O)CSc2nc3c([nH]c4ccccc43)c(=O)n2C)cc1
- AC50 [1]: 15.8 µM [falling, partial curve]

Compound: CCOC(=O)c1cc2c(=O)n3ccccc3nc2n(CC2CCCO2)c1=NC(=O)c1ccccc1OCC (stereo not given)
- AC50 [1]: 39.8 µM [falling, single point]

Compound: COc1ccccc1OCCCn1c(C2CC(=O)N(c3ccc(F)cc3)C2)nc2ccccc21 (stereo not given)
- AC50 [1]: 25.1 µM [falling, partial curve]
